Measurements reported in patent US20090208620A1, “Alimentary Compositions and Methods For Metabolic Modulation” (VDF FUTURECEUTICALS, INC., priority 2003, published 2009).
Several values for one entry are separate records, joined by “and”; a condition that tells them apart may be missing. Equal values may be shown once. For at least one compound, name, drawing or mass did not settle the structure.

Tested on: muscle cells
Test: Total glucose uptake in vitro with fluorescent glucose analog
Type: cell-based
Details: 30 minutes at 37 C
Experimental: Total glucose uptake was measured using fluorescent glucose analog from Molecular Probes. Briefly, muscle cells were treated with kinetin, N^2-Acetyl-Guanosine and N^2-Acetyl-Guanine for 30 minutes at 37 C first and subsequently, these cells were exposed to 500 μM of fluorescent glucose analog for 5 minutes at room temperature. Next, cells were washed twice with cold Krebs-Hepes buffered solution and fixed in 70% ethanol in water. Fluorescence of fluorescent glucose in the cells was measured using fluorescent plate reader at 480/530 nm (excitation/emission). […] Table 4 refers to multiple independent experiments where multiple identical concentrations for the same reagents are indicated.

[1] = concentration 30.0 (unit not given)

Structure (SMILES): CN(CCOc1ccc(CC2SC(=O)NC2=O)cc1)c1ccccn1 (stereo not drawn) [Rosiglitazone, reference compound]
- FOLD CHANGE IN TOTAL GLUCOSE UPTAKE (OVER CONTROL) (concentration 3.0 (unit not given)): 2.33 fold and 2.34 fold
- AVERAGE (N = 3) fluorescence of fluorescent glucose in the cells [1]: 56.5 +/− 1.4
- FOLD CHANGE IN TOTAL GLUCOSE UPTAKE (OVER CONTROL) [1]: 2.78 fold
